These are yes or no findings as the source states them, for the method shown. Some entries that bind do so weakly or less than the wild type.
Biological target: human BCMA on BCMA-expressing multiple myeloma cells (H929, RPMI-8226) (human) (UniProt Q02223)
Assay: flow cytometry on H929 cells, Δ-APRIL (HA-tagged) at […] incubated simultaneously with 20 ug/mL isotype control or clone 83A10, fluorochrome-conjugated anti-HA detection

Sequences of proteins named here, by UniProt entry; tags and fusion partners are left off. A change or cut given only in a name is not applied to a line headed by its entry. A line that says so, or that is headed by a name, gives the form on record, which may keep a tag or linker.
UniProt Q02223: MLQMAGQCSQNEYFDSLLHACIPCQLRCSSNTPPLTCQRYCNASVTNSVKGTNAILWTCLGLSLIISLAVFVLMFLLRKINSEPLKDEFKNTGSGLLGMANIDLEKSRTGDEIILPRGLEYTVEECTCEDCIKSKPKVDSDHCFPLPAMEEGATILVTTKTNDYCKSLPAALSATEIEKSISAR
recombinant mouse Δ-APRIL tagged with hemagglutinin (HA) (R&D Systems Europe, #7907-AP-010) (Q9D777, form named): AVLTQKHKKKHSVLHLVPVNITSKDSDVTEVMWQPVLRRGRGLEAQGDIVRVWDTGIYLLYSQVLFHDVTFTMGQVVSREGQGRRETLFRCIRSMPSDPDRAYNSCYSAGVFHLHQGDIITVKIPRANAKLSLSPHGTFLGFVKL

binding: binds
Substance: recombinant mouse Δ-APRIL tagged with hemagglutinin (HA) (R&D Systems Europe, #7907-AP-010) (from UniProt Q9D777 96-241) (ligand)
